Results are given in words; binding and its absence hold for the method and conditions named. Binding seen in cells or lysates may run through a third protein. These calls come from enrichment with a bait or labelling near it, and not all partners need be listed.
Each molecule was assayed against SMARCA4 (human (endogenous in G401)) (UniProt P51532) (assay: affinity purification with mass spectrometry; as a1, G401 cells induced 48 h to express SMARCB1 I315R in place of the wildtype; compared with the wildtype condition).

The chains behind the UniProt entries cited, without tags or fusion partners.
UniProt P51532: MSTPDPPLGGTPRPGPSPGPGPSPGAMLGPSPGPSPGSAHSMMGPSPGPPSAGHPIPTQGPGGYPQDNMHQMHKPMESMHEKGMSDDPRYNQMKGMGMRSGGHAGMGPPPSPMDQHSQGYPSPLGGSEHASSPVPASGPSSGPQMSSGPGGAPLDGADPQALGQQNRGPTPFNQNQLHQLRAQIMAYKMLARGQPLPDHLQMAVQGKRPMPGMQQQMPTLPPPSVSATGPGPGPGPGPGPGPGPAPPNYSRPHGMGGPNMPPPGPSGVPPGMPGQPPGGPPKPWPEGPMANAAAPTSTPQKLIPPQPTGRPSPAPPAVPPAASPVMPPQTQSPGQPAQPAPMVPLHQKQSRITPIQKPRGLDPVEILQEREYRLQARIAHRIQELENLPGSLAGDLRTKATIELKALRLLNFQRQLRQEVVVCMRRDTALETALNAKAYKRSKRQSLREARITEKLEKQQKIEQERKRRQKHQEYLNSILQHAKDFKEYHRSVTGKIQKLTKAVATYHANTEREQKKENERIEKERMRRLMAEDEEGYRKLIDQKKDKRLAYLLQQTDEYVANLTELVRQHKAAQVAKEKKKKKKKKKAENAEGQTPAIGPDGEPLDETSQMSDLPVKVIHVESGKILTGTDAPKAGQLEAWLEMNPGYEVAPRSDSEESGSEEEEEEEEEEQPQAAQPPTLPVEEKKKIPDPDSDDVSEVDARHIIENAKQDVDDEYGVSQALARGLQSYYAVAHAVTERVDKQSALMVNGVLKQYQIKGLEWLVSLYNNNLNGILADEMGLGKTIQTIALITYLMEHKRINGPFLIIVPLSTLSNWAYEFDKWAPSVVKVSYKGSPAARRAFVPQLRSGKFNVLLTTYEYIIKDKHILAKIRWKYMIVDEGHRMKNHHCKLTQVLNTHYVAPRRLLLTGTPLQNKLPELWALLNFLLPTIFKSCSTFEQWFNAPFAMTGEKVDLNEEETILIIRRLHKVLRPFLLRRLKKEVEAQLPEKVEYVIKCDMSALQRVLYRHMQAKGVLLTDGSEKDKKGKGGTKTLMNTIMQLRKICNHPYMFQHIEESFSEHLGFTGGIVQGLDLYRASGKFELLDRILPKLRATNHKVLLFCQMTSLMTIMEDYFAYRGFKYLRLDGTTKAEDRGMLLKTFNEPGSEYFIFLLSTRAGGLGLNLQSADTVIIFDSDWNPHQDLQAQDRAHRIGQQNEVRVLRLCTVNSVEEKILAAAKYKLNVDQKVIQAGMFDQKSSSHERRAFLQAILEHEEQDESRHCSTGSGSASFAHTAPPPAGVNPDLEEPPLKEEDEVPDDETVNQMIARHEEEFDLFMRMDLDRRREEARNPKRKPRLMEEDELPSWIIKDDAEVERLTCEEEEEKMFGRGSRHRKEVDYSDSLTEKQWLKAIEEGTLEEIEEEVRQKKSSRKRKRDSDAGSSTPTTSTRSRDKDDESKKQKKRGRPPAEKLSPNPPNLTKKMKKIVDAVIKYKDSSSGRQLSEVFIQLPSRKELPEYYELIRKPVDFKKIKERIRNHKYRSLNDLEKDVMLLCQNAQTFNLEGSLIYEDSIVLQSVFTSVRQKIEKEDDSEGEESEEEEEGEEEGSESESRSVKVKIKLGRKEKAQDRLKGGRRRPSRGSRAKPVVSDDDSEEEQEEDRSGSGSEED
UniProt Q2KHR3: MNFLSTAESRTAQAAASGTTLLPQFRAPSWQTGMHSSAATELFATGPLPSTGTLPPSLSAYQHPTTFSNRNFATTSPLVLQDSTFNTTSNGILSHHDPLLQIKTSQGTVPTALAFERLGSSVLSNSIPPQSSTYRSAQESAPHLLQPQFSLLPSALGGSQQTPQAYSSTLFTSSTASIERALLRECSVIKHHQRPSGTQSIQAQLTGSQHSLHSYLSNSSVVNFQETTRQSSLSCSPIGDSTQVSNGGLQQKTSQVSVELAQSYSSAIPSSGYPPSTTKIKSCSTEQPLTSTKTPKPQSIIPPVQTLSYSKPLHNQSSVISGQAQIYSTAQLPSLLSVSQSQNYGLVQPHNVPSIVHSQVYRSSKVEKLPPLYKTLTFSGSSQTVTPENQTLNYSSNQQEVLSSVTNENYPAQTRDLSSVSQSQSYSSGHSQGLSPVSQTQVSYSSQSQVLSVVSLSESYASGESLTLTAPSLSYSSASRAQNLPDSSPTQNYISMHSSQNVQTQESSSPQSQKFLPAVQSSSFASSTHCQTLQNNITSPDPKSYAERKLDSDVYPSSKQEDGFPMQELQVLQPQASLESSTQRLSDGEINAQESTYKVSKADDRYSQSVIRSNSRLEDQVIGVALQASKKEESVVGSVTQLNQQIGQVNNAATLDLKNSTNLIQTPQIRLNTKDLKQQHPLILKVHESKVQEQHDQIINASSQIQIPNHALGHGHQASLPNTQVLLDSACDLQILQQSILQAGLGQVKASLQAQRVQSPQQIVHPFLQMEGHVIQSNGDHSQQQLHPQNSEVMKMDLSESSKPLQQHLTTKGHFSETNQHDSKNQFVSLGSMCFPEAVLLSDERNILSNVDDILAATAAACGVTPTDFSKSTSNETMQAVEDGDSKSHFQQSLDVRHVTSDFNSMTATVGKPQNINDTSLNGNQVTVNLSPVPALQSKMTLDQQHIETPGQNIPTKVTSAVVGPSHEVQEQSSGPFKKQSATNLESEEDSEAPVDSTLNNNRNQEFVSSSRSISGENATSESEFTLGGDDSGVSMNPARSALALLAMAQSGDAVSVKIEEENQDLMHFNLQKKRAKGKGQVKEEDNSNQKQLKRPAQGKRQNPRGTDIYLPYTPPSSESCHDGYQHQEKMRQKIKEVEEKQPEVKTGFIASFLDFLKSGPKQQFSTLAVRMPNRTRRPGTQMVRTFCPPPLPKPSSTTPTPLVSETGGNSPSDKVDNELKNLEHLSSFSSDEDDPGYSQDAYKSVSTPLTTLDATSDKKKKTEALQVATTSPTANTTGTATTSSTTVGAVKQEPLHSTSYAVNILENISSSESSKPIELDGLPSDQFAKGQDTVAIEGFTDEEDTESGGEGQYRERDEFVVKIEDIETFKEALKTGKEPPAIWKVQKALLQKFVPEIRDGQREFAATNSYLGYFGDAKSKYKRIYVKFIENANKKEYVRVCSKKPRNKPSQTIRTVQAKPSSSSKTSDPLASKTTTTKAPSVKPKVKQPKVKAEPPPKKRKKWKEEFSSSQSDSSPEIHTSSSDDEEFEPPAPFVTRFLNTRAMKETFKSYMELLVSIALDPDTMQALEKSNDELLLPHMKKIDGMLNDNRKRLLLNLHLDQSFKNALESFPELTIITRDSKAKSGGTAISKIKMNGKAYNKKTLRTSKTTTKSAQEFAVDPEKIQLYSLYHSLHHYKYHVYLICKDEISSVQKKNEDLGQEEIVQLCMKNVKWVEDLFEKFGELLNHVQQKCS
UniProt Q9Y6J0: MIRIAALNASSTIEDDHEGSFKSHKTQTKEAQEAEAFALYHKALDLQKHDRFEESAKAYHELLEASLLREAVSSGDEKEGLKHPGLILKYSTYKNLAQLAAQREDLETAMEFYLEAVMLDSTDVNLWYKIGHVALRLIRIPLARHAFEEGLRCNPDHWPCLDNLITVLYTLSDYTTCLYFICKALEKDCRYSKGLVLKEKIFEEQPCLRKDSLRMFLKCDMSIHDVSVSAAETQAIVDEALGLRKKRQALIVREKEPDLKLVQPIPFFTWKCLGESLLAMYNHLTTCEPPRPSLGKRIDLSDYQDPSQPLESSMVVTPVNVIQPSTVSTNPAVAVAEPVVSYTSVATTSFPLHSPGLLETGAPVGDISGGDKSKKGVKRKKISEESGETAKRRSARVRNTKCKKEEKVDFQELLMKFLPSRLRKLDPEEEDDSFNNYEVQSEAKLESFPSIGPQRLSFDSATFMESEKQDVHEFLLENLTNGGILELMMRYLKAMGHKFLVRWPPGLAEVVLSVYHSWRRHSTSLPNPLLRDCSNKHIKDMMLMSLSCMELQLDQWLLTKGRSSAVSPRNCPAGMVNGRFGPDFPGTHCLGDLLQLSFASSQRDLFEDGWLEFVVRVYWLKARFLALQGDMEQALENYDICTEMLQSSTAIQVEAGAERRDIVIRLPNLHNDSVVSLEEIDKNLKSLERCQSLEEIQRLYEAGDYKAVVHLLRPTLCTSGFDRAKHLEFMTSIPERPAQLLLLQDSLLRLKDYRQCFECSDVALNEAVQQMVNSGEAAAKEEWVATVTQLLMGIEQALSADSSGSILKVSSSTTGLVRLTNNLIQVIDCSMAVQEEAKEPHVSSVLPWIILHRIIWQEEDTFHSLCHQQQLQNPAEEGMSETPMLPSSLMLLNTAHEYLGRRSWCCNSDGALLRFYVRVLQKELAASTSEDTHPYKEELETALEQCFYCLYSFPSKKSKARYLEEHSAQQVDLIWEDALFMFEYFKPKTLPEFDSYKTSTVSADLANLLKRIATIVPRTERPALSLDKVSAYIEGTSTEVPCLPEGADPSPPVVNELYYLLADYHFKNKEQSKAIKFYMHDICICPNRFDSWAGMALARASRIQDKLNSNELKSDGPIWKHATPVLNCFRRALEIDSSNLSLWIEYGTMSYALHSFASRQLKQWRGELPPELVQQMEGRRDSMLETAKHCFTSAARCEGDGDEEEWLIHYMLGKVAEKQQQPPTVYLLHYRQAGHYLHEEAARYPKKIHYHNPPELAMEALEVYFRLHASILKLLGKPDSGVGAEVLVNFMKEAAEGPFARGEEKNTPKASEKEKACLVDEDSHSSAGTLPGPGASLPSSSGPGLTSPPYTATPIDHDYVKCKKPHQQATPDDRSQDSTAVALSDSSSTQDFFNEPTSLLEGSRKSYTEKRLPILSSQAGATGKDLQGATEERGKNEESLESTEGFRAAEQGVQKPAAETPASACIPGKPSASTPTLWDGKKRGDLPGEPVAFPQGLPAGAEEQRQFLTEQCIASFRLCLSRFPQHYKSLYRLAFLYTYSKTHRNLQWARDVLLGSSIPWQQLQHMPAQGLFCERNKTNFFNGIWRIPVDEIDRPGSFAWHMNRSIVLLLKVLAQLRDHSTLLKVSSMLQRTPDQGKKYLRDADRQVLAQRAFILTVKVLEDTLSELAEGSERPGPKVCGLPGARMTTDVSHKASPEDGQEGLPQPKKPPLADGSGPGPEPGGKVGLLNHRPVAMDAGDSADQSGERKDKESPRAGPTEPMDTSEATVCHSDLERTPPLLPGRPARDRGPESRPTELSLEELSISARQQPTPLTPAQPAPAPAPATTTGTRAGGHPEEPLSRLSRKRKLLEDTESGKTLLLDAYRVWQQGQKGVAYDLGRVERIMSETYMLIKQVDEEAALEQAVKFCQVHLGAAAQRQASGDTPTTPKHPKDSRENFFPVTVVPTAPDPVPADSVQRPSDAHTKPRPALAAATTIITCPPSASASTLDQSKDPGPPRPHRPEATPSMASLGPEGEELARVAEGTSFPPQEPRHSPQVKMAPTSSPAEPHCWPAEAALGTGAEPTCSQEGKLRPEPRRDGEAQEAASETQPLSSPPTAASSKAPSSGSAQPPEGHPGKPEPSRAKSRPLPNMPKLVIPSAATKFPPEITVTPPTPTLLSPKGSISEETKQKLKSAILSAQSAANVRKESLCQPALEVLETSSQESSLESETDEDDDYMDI
UniProt Q13263: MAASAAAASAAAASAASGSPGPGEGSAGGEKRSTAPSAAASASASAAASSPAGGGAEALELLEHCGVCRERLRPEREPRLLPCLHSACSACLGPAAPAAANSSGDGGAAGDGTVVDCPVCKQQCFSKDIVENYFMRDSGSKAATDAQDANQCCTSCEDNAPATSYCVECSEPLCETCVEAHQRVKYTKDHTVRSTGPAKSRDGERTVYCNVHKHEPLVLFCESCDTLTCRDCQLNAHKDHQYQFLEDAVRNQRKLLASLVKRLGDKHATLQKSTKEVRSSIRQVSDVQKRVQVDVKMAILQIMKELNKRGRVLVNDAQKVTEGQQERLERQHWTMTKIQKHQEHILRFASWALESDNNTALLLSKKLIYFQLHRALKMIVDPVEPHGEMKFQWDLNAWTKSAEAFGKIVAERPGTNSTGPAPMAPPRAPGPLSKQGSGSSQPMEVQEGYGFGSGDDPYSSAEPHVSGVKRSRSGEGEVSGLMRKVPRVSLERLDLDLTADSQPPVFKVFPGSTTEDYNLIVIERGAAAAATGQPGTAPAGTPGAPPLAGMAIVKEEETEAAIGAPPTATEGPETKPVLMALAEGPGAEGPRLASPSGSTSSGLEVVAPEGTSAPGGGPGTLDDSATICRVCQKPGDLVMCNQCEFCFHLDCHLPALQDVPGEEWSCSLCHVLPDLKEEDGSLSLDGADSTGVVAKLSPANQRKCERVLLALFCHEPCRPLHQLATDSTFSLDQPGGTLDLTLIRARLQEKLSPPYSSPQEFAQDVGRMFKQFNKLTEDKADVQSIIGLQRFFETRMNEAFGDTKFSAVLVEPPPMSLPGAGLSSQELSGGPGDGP

binding | Molecule
binds | QSER1 (from UniProt Q2KHR3 1-1735)
binds | CABIN1 (from UniProt Q9Y6J0 1-2220)
binds | TRIM28 (from UniProt Q13263 1-835)

The molecules below were run against SMARCA4 (human (endogenous in G401)) (UniProt P51532) (assay: affinity purification with mass spectrometry; as a1, G401 cells induced 48 h to express SMARCB1 W281P in place of the wildtype; compared with the wildtype condition).

binding | Molecule
binds | RBM28 (protein, UniProt Q9NW13 1-759) MAGLTLFVGRLPPSARSEQLEELFSQVGPVKQCFVVTEKGSKACRGFGYVTFSMLEDVQRALKEITTFEGCKINVTVAKKKLRNKTKEKGKNENSECPKKEPKAKKAKVADKKARLIIRNLSFKCSEDDLKTVFAQFGAVLEVNIPRKPDGKMRGFGFVQFKNLLEAGKALKGMNMKEIKGRTVAVDWAVAKDKYKDTQSVSAIGEEKSHESKHQESVKKKGREEEDMEEEENDDDDDDDDEEDGVFDDEDEEEENIESKVTKPVQIQKRAVKRPAPAKSSDHSEEDSDLEESDSIDDGEELAQSDTSTEEQEDKAVQVSNKKKRKLPSDVNEGKTVFIRNLSFDSEEEELGELLQQFGELKYVRIVLHPDTEHSKGCAFAQFMTQEAAQKCLLAASPENEAGGLKLDGRQLKVDLAVTRDEAAKLQTTKVKKPTGTRNLYLAREGLIRAGTKAAEGVSAADMAKRERFELLKHQKLKDQNIFVSRTRLCLHNLPKAVDDKQLRKLLLSATSGEKGVRIKECRVMRDLKGVHGNMKGQSLGYAFAEFQEHEHALKALRLINNNPEIFGPLKRPIVEFSLEDRRKLKMKELRIQRSLQKMRSKPATGEPQKGQPEPAKDQQQKAAQHHTEEQSKVPPEQKRKAGSTSWTGFQTKAEVEQVELPDGKKRRKVLALPSHRGPKIRLRDKGKVKPVHPKKPKPQINQWKQEKQQLSSEQVSRKKAKGNKTETRFNQLVEQYKQKLLGPSKGAPLAKRSKWFDS
binds | NIP7 (protein, UniProt Q9Y221 1-180) MRPLTEEETRVMFEKIAKYIGENLQLLVDRPDGTYCFRLHNDRVYYVSEKIMKLAANISGDKLVSLGTCFGKFTKTHKFRLHVTALDYLAPYAKYKVWIKPGAEQSFLYGNHVLKSGLGRITENTSQYQGVVVYSMADIPLGFGVAAKSTQDCRKVDPMAIVVFHQADIGEYVRHEETLT
binds | NOP16 (protein, UniProt Q9Y3C1 1-178) MPKAKGKTRRQKFGYSVNRKRLNRNARRKAAPRIECSHIRHAWDHAKSVRQNLAEMGLAVDPNRAVPLRKRKVKAMEVDIEERPKELVRKPYVLNDLEAEASLPEKKGNTLSRDLIDYVRYMVENHGEDYKAMARDEKNYYQDTPKQIRSKINVYKRFYPAEWQDFLDSLQKRKMEVE
binds | DHX30 (protein, UniProt Q7L2E3 1-1194) MFSLDSFRKDRAQHRQRQCKLPPPRLPPMCVNPTPGGTISRASRDLLKEFPQPKNLLNSVIGRALGISHAKDKLVYVHTNGPKKKKVTLHIKWPKSVEVEGYGSKKIDAERQAAAAACQLFKGWGLLGPRNELFDAAKYRVLADRFGSPADSWWRPEPTMPPTSWRQLNPESIRPGGPGGLSRSLGREEEEDEEEELEEGTIDVTDFLSMTQQDSHAPLRDSRGSSFEMTDDDSAIRALTQFPLPKNLLAKVIQIATSSSTAKNLMQFHTVGTKTKLSTLTLLWPCPMTFVAKGRRKAEAENKAAALACKKLKSLGLVDRNNEPLTHAMYNLASLRELGETQRRPCTIQVPEPILRKIETFLNHYPVESSWIAPELRLQSDDILPLGKDSGPLSDPITGKPYVPLLEAEEVRLSQSLLELWRRRGPVWQEAPQLPVDPHRDTILNAIEQHPVVVISGDTGCGKTTRIPQLLLERYVTEGRGARCNVIITQPRRISAVSVAQRVSHELGPSLRRNVGFQVRLESKPPSRGGALLFCTVGILLRKLQSNPSLEGVSHVIVDEVHERDVNTDFLLILLKGLQRLNPALRLVLMSATGDNERFSRYFGGCPVIKVPGFMYPVKEHYLEDILAKLGKHQYLHRHRHHESEDECALDLDLVTDLVLHIDARGEPGGILCFLPGWQEIKGVQQRLQEALGMHESKYLILPVHSNIPMMDQKAIFQQPPVGVRKIVLATNIAETSITINDIVHVVDSGLHKEERYDLKTKVSCLETVWVSRANVIQRRGRAGRCQSGFAYHLFPRSRLEKMVPFQVPEILRTPLENLVLQAKIHMPEKTAVEFLSKAVDSPNIKAVDEAVILLQEIGVLDQREYLTTLGQRLAHISTDPRLAKAIVLAAIFRCLHPLLVVVSCLTRDPFSSSLQNRAEVDKVKALLSHDSGSDHLAFVRAVAGWEEVLRWQDRSSRENYLEENLLYAPSLRFIHGLIKQFSENIYEAFLVGKPSDCTLASAQCNEYSEEEELVKGVLMAGLYPNLIQVRQGKVTRQGKFKPNSVTYRTKSGNILLHKSTINREATRLRSRWLTYFMAVKSNGSVFVRDSSQVHPLAVLLLTDGDVHIRDDGRRATISLSDSDLLRLEGDSRTVRLLKELRRALGRMVERSLRSELAALPPSVQEEHGQLLALLAELLRGPCGSFDVRKTADD

What follows are molecules tested against SMARCA4 (human (endogenous in G401)) (UniProt P51532) (assay: affinity purification with mass spectrometry; BRG1 (G7) antibody cross-linked to protein G magnetic beads; 800 ug G401 nuclear extract (EB300: 300 mM NaCl, 1% NP-40), overnight at 4 C; on-bead digestion, LC-MS/MS, label-free; cells induced 48 h with doxycycline to re-express SMARCB1 …; for partners told as kept, also the W281P and I315R cells).

binding | Molecule
binds | BRD9 (from UniProt Q9H8M2 1-597)
binds | GLTSCR1 (from UniProt Q9NZM4 1-1560)
binds | PHF10 (protein, UniProt Q8WUB8 1-498) MAAAAGPGAALSPRPCDSDPATPGAQSPKDDNEDNSNDGTQPSKRRRMGSGDSSRSCETSSQDLGFSYYPAENLIEYKWPPDETGEYYMLQEQVSEYLGVTSFKRKYPDLERRDLSHKEKLYLRELNVITETQCTLGLTALRSDEVIDLMIKEYPAKHAEYSVILQEKERQRITDHYKEYSQMQQQNTQKVEASKVPEYIKKAAKKAAEFNSNLNRERMEERRAYFDLQTHVIQVPQGKYKVLPTERTKVSSYPVALIPGQFQEYYKRYSPDELRYLPLNTALYEPPLDPELPALDSDGDSDDGEDGRGDEKRKNKGTSDSSSGNVSEGESPPDSQEDSFQGRQKSKDKAATPRKDGPKRSVLSKSVPGYKPKVIPNAICGICLKGKESNKKGKAESLIHCSQCENSGHPSCLDMTMELVSMIKTYPWQCMECKTCIICGQPHHEEEMMFCDMCDRGYHTFCVGLGAIPSGRWICDCCQRAPPTPRKVGRRGKNSKEG
